Consider 1 molecule from patent publication US7785835.

Chains of the proteins cited; added tags and fusions are not shown. Residues count along the entry.
UniProt P04004, residues 20-478: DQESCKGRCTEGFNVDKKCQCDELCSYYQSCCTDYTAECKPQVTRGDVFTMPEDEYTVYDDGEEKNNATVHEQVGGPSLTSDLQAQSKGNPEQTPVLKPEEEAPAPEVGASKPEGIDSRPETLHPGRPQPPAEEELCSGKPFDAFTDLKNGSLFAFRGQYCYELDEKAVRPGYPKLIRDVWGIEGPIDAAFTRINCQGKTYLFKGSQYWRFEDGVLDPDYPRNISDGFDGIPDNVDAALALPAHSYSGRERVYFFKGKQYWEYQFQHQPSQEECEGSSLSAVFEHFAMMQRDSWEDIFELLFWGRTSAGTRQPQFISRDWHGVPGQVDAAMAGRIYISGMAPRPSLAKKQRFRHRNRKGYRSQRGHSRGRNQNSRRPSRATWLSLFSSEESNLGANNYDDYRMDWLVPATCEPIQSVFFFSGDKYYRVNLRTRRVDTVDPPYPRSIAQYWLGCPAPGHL

The target in this test is vitronectin (UniProt P04004). Nature of the test: [^125I]-IGF-I bound to VN-coated wells in the presence of IGFBP.

Results are given in words; binding and its absence hold for the method and conditions named. Some results given as binding are weak or reduced against the parent protein; the word gives no strength.

B1: recombinant IGFBP-4 produced in mammalian cells (protein, UniProt P22692 22-258, looked up)
chain: DEAIHCPPCSEEKLARCRPPVGCEELVREPGCGCCATCALGLGMPCGVYTPRCGSGLRCYPPRGVEKPLHTLMHGQGVCMELAEIEAIQESLQPSDKDEGDHPNNSFSPCSAHDRRCLQKHFAKIRDRSTSGGKMKVNGAPREDARPVPQGSCQSELHRALERLAASQSRTHEDLYIIPIPNCDRNGNFHPKQCHPALDGQRGKCWCVDRKTGVKLPGGLEPKGELDCHQLADSFRE
As to B1, the binding entry is listed as “binds”.
